Results on one substance are retold here after paper PMC12139522.

These are yes or no findings as the source states them, for the method shown. Binding calls can cover weak binding; strength is not graded here.

The target in the assay is T1, mCherry-TPRN (mouse) (UniProt A2AI08).
T1 sequence: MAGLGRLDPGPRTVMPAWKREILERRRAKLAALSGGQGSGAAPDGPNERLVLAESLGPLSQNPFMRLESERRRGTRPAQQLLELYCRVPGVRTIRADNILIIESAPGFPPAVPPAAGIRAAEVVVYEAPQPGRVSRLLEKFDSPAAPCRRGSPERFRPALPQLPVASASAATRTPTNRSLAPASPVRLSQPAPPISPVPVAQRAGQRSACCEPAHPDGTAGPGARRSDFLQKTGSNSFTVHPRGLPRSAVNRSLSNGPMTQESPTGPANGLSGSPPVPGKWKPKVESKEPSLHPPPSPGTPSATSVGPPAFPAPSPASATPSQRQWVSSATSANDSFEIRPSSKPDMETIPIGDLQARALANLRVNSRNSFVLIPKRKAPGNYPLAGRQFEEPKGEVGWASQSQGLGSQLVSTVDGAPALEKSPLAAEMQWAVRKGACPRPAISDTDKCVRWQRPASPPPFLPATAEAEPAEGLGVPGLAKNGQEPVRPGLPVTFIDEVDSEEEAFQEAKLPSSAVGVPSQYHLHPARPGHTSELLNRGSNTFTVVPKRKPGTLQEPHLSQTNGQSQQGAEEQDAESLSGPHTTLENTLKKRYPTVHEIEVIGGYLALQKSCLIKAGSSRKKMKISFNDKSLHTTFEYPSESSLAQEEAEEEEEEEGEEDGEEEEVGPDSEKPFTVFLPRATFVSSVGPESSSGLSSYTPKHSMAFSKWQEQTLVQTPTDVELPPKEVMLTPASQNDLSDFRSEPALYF
The assay is described as follows: co-translocation to the nucleus (confocal microscopy); COS-7 cells co-expressing mCherry-TPRN and EGFP-PTPRQ; PTPRQ carried to nuclear whorl-like actin bundles.

With “EGFP-PTPRQ (cytoplasmic intracellular domain of chicken PTPRQ with EGFP) (domain or fragment)”, the binding entry was “binds”.
